Where two headings read alike, the source gives them in different places. Results are given in words; binding and its absence hold for the method and conditions named. Binding seen in cells or lysates may run through a third protein. Some results given as binding are weak or reduced against the parent protein; the word gives no strength.
How the values were obtained:
[1] = target: Kelch-like ECH-associated protein 1 (Keap1) (human (endogenous in HPMECs)) (UniProt Q14145); assay: co-IP; HPMEC lysate in IP lysis buffer; PLZF and Keap1 antibodies on protein A/G Sepharose, incubated overnight at 4°C; beads washed three times with lysis buffer; immunoblot
[2] = target: Kelch-like ECH-associated protein 1 (Keap1) (human (endogenous in HPMECs)) (UniProt Q14145); assay: as above; remark: listed apart in the source

By UniProt entry, the sequences of proteins in these tests, tags left out.
UniProt Q14145: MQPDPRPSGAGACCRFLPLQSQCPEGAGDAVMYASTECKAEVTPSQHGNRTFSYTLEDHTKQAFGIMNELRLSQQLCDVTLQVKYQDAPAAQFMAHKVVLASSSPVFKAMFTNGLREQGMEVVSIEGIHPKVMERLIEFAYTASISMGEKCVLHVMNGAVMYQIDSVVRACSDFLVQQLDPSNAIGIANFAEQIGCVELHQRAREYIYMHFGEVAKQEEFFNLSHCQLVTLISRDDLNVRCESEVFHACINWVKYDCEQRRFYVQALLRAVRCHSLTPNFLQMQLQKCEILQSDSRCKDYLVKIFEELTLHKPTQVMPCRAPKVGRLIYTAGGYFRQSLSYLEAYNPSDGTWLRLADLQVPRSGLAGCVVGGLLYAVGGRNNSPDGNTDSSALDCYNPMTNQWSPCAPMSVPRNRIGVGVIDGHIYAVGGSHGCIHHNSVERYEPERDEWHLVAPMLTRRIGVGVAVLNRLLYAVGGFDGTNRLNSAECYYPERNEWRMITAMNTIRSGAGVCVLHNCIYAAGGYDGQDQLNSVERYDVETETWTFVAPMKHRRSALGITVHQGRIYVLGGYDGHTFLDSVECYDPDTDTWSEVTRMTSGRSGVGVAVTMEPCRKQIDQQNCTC
UniProt Q16665: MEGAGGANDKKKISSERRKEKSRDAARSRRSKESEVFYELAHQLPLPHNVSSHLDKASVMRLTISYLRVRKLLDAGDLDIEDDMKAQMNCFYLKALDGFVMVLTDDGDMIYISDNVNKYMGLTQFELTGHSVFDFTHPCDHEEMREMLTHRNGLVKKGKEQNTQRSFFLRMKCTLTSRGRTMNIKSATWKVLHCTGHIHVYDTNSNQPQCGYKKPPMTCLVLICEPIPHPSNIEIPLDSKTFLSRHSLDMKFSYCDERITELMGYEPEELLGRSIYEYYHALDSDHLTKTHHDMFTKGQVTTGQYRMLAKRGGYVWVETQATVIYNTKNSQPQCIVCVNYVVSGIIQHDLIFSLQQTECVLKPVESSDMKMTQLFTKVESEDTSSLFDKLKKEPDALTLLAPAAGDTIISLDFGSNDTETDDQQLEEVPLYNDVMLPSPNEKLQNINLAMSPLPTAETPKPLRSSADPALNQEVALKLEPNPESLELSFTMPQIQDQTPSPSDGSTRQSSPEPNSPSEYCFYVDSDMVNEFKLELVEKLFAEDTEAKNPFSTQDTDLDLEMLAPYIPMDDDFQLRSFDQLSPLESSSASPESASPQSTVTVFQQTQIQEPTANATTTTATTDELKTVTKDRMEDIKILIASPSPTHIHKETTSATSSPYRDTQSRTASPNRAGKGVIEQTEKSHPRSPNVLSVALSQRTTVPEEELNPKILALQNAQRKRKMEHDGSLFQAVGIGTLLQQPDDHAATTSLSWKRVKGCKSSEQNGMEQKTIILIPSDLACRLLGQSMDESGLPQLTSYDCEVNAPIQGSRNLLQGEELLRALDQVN

Row | binding [1] | binding [2] | Molecule
1 | binds |  | Hypoxia-inducible factor-1α (HIF-1α) (from UniProt Q16665 1-826)
2 |  | binds | Promyelocytic leukemia zinc finger protein (PLZF) (protein, UniProt Q05516 1-673) MDLTKMGMIQLQNPSHPTGLLCKANQMRLAGTLCDVVIMVDSQEFHAHRTVLACTSKMFEILFHRNSQHYTLDFLSPKTFQQILEYAYTATLQAKAEDLDDLLYAAEILEIEYLEEQCLKMLETIQASDDNDTEATMADGGAEEEEDRKARYLKNIFISKHSSEESGYASVAGQSLPGPMVDQSPSVSTSFGLSAMSPTKAAVDSLMTIGQSLLQGTLQPPAGPEEPTLAGGGRHPGVAEVKTEMMQVDEVPSQDSPGAAESSISGGMGDKVEERGKEGPGTPTRSSVITSARELHYGREESAEQVPPPAEAGQAPTGRPEHPAPPPEKHLGIYSVLPNHKADAVLSMPSSVTSGLHVQPALAVSMDFSTYGGLLPQGFIQRELFSKLGELAVGMKSESRTIGEQCSVCGVELPDNEAVEQHRKLHSGMKTYGCELCGKRFLDSLRLRMHLLAHSAGAKAFVCDQCGAQFSKEDALETHRQTHTGTDMAVFCLLCGKRFQAQSALQQHMEVHAGVRSYICSECNRTFPSHTALKRHLRSHTGDHPYECEFCGSCFRDESTLKSHKRIHTGEKPYECNGCGKKFSLKHQLETHYRVHTGEKPFECKLCHQRSRDYSAMIKHLRTHNGASPYQCTICTEYCPSLSSMQKHMKGHKPEEIPPDWRIEKTYLYLCYV

— paper PMC12221005
